Source: PMC9154192 (PLoS Biology, 2022)

Test system: intestinal microbiome
Experiment: Gut microbiome, 16s rRNA gene-based metagenomics analysis of feces
Type: in vivo, BALB/c mice
Procedure: Six-week-old BALB/c female mice were used for this study (6 mice for each group). Each drug was administered orally at 30 mg/kg once daily for 7 days. Stool was collected, and 16 rRNA gene-based metagenomics analysis was performed. Corn oil was used as the vehicle. The drug-free group received corn oil only. This animal experiment was conducted with the approval of the IACUC of the Soonchunhyang University (approval number: SCH21-0011). Microbiome analysis of collected feces was carried out as previously described with some modifications. Total DNA was extracted from the stool using the QIAamp DNA stool mini kit (Qiagen, Germany) after mechanical disruption using lysing matrix B tubes (MP Biomedicals, USA). V4 region of 16S RNA gene was amplified from extracted DNA with the following primers: forward primer ([…]) and reverse primer ([…]). PCR was performed using the Kappa HiFi hot start kit (KAPA Biosystems, USA) for 16s gene amplification and library preparation. A dsDNA HS assay kit and Qubit 4 fluorimeter (Invitrogen, USA) were used for DNA quantification. After each step, quality was checked using Agilent High Sensitivity DNA Kit and Agilent Bioanalyzer 2100 (Agilent Technologies, USA). Clean-up was performed using AMPure XP beads (Beckman Coulter, UK). The metagenomic library was prepared using a Nextera XT DNA Library Prep Kit (Illumina, USA) and loaded into an iSeq-100 reagent cartridge (Illumina, USA) together with a PhiX Control library (Illumina, USA). A 300-bp paired-end sequencing was performed on an iSeq-100 platform (Illumina, USA). Sequencing data were analyzed using the EzBioCloud server (Chunlab, Korea).

[1] = after drug treatment, fraction of class
[2] = after drug treatment, fraction of phylum
[3] = gut microbiota after drug treatment, box plot data

Row | SMILES | Gut microbiota, Class Actinobacteria_c [1] | Gut microbiota, Class Bacilli [1] | Gut microbiota, Class Bacteroidia [1] | Gut microbiota, Class Betaproteobacteria [1] | Gut microbiota, Class Clostridia [1] | Gut microbiota, Class Deferribacteres_c [1] | Gut microbiota, Class ETC(<1%) [1] | Gut microbiota, Class Epsilonproteobacteria [1] | Gut microbiota, Class Gammaproteobacteria [1] | Gut microbiota, Phylum Actinobacteria [2] | Gut microbiota, Phylum Bacteroidetes [2] | Gut microbiota, Phylum Deferribacteres [2] | Gut microbiota, Phylum ETC(<1%) [2] | Gut microbiota, Phylum Firmicutes [2] | Gut microbiota, Phylum Proteobacteria [2] | Phylogenetic diversity, High [3] | Phylogenetic diversity, Low [3] | Phylogenetic diversity, Median [3] | Phylogenetic diversity, Q1(25%) [3] | Phylogenetic diversity, Q3(75%) [3] | further results
1 | CO[C@H]1/C=C/O[C@@]2(C)Oc3c(C)c(O)c4c(O)c(c(/C=N/N5CCN(C)CC5)c(O)c4c3C2=O)NC(=O)/C(C)=C\C=C\[C@H](C)[C@H](O)[C@@H](C)[C@@H](O)[C@@H](C)[C@H](OC(C)=O)[C@@H]1C [RIF, rifampicin, reference compound] |  |  |  |  |  |  |  |  |  |  |  |  |  |  |  |  |  |  |  |  | Gut microbiota, Class Actinobacteria_c (mouse, in vivo): 0.000; Gut microbiota, Class Bacilli (mouse, in vivo): 0.000; Gut microbiota, Class Bacteroidia (mouse, in vivo): 0.844; Gut microbiota, Class Betaproteobacteria (mouse, in vivo): 0.000; Gut microbiota, Class Clostridia (mouse, in vivo): 0.018; Gut microbiota, Class Deferribacteres_c (mouse, in vivo): 0.000; Gut microbiota, Class ETC(<1%) (mouse, in vivo): 0.018; Gut microbiota, Class Epsilonproteobacteria (mouse, in vivo): 0.040; Gut microbiota, Class Gammaproteobacteria (mouse, in vivo): 0.079; Gut microbiota, Phylum Actinobacteria (mouse, in vivo): 0.000; Gut microbiota, Phylum Bacteroidetes (mouse, in vivo): 0.844; Gut microbiota, Phylum Deferribacteres (mouse, in vivo): 0.000; Gut microbiota, Phylum ETC(<1%) (mouse, in vivo): 0.012; Gut microbiota, Phylum Firmicutes (mouse, in vivo): 0.024; Gut microbiota, Phylum Proteobacteria (mouse, in vivo): 0.120; Phylogenetic diversity, High (mouse, in vivo): 27; Phylogenetic diversity, Low (mouse, in vivo): 64; Phylogenetic diversity, Median (mouse, in vivo): 16; Phylogenetic diversity, Q1(25%) (mouse, in vivo): 9; Phylogenetic diversity, Q3(75%) (mouse, in vivo): 13
2 | CN[C@H](CC(C)C)C(=O)N[C@H]1C(=O)N[C@@H](CC(N)=O)C(=O)N[C@H]2C(=O)N[C@H]3C(=O)N[C@H](C(=O)N[C@H](C(=O)O)c4cc(O)cc(O)c4-c4cc3ccc4O)[C@H](O)c3ccc(c(Cl)c3)Oc3cc2cc(c3O[C@@H]2O[C@H](CO)[C@@H](O)[C@H](O)[C@H]2O[C@H]2C[C@](C)(N)[C@H](O)[C@H](C)O2)Oc2ccc(cc2Cl)[C@H]1O [VAN, vancomycin] | 0.000 | 0.053 | 0.000 | 0.117 | 0.000 | 0.000 | 0.0074 | 0.000 | 0.823 | 0.000 | 0.000 | 0.000 | 0.0038 | 0.053 | 0.943 | 7 | 36 | 6 | 2 | 1 | 
3 | NNC(=O)c1ccncc1 [INH, isoniazid, reference compound] | 0.128 | 0.184 | 0.375 | 0.000 | 0.218 | 0.000 | 0.013 | 0.066 | 0.016 | 0.130 | 0.375 | 0.000 | 0.00667 | 0.403 | 0.086 | 3.5 | 103 | 44 | 44 | 3.5 | 
